# Source: PubChem BioAssay AID2662 (National Center for Advancing Translational Sciences (NCATS), 2010)
# By UniProt entry, the sequences of proteins in these tests, tags left out.
# UniProt Q03164, whole entry, looked up: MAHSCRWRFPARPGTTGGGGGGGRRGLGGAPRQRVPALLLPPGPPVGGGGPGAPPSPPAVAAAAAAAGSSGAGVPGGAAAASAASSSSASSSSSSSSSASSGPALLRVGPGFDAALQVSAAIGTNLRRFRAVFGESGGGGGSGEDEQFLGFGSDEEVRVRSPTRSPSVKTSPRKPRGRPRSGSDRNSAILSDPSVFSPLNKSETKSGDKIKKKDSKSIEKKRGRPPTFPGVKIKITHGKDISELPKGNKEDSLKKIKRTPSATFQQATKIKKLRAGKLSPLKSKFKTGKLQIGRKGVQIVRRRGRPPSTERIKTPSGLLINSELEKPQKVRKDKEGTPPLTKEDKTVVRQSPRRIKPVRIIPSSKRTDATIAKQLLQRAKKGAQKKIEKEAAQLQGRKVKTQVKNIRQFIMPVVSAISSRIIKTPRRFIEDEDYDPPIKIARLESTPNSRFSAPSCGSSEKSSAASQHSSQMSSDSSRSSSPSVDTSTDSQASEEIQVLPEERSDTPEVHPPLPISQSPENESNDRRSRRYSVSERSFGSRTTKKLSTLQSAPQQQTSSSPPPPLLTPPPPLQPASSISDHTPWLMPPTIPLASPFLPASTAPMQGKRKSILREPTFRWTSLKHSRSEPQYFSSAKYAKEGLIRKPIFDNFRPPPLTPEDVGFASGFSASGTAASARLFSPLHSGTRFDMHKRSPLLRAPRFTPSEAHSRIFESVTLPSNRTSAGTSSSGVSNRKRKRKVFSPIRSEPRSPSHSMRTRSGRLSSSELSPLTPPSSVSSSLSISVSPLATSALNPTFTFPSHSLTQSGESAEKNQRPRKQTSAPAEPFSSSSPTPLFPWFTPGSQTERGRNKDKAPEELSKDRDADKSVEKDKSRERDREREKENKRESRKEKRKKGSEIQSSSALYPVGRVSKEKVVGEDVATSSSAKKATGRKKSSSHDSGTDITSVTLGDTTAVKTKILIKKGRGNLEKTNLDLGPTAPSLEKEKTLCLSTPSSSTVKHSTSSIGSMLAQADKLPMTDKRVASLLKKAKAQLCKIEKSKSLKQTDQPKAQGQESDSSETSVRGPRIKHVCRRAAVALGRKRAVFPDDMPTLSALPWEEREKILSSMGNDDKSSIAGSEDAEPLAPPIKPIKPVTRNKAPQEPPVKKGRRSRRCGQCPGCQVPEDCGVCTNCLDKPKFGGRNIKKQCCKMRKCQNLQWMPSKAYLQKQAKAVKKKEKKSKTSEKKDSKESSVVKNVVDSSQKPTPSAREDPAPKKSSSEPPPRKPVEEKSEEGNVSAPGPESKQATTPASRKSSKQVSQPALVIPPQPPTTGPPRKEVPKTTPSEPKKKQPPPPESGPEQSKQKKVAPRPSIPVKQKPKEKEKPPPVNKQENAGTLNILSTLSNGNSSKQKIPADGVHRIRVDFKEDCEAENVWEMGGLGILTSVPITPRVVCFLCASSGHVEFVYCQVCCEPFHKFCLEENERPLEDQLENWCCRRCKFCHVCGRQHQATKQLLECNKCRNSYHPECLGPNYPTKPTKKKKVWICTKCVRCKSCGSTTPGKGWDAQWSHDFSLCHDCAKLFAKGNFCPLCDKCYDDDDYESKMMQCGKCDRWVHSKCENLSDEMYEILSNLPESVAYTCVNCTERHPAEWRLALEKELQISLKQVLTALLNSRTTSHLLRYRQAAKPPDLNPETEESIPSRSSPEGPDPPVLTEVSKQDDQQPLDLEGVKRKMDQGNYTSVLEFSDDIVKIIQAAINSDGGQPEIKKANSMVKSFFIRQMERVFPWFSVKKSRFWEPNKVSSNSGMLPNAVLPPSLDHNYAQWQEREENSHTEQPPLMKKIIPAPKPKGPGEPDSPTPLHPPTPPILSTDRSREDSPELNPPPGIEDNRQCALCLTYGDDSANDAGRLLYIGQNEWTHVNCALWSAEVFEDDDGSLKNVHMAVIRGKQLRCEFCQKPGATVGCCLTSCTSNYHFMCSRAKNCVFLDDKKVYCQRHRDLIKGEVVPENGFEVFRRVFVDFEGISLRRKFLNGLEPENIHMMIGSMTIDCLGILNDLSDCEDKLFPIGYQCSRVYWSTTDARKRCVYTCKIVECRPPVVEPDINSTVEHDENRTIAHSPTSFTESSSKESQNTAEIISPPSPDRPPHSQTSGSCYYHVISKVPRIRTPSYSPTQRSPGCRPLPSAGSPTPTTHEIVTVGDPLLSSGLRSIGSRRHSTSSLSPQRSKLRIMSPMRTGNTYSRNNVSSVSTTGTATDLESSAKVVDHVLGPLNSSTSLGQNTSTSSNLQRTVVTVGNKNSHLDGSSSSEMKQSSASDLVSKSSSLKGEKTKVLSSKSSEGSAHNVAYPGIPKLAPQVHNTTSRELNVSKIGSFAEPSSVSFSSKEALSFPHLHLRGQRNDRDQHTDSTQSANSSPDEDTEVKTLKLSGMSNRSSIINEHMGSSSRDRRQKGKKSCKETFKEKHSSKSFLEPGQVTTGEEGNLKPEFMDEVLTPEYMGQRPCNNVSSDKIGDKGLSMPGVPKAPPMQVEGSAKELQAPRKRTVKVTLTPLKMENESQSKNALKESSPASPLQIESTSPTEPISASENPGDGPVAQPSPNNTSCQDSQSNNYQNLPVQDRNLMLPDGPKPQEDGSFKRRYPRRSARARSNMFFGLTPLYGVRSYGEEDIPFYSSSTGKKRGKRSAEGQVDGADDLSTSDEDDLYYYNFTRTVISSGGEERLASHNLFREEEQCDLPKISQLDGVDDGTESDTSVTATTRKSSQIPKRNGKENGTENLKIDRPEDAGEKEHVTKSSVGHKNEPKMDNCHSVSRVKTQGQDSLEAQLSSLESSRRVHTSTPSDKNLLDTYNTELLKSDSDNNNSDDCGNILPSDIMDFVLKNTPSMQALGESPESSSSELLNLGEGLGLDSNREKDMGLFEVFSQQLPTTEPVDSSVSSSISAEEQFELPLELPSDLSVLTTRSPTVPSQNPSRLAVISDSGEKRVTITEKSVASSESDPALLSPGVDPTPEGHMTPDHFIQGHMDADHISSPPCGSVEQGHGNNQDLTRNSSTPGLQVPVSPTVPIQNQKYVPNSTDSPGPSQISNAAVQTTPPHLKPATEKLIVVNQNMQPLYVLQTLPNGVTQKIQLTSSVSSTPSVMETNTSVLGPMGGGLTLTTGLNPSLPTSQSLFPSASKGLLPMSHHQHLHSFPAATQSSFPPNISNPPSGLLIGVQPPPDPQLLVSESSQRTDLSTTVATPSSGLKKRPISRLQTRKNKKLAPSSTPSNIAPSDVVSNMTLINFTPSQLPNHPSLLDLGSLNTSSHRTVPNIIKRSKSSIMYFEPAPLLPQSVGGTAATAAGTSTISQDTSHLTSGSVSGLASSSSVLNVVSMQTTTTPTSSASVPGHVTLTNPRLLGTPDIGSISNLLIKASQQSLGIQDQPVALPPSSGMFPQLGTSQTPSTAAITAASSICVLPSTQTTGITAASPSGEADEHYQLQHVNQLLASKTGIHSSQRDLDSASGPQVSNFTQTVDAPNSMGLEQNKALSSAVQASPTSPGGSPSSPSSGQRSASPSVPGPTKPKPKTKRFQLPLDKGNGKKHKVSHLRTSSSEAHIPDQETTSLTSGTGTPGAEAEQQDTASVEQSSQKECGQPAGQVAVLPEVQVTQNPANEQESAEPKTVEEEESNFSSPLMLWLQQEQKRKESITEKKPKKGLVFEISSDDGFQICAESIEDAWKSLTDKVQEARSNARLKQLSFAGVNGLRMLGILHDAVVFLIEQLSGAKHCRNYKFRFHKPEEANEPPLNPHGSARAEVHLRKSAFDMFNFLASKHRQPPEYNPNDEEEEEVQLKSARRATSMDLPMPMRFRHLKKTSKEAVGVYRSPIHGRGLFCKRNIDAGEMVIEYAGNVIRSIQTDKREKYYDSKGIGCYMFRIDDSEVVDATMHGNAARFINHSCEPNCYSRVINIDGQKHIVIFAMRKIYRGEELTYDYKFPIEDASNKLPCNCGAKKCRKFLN
# The campaign covered roughly 290,000 compounds. About 110 (0.038%) were called active. Inconclusive results, whose numbers are uncertain, are shown with a selection of clear calls. Calls follow the shape of the dose curve; as a rule, active = well fitted inhibition curve with a large enough effect in the polarisation, with a control signal flat (not every such curve was filed as active); inconclusive = small, poorly fitted or top-dose-only effect, or effect the other way, or a change in a side signal; inactive = no such curve, though single readings can be large or run the other way; the % refers to the polarisation. Potencies of inconclusive entries are doubtful fits and often do not repeat. A note “side channel” means that the fit belongs to a control or component signal, not to the main read-out.
# Biological target: Histone-lysine N-methyltransferase 2A (Homo sapiens) (UniProt Q03164)
# Experiment: qHTS Fluorescence Polarization Assay for Inhibitors of MLL CXXC domain - DNA interaction
# Conditions: MLL-CXXC / FITC-HOXA9 DNA fluorescence polarization; series mostly up to 115 µM
# Method in brief: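 Purified MLL-CXXC (added from a 7 uM solution) was preincubated 5 min at ambient with pinned compounds in 50 mM Tris-HCl pH 7.5, 50 mM NaCl, 1 mM DTT, 0.05% BSA. Fluorescein-labeled HOX-A9 DNA (50 nM solution) followed, 30 min, then polarization read.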
# Potency is read from the fitted curve at half-maximal effect.
row,SMILES,Potency
1,Fc1ccccc1NC(=S)Nc1cccnc1,"inconclusive: 35.5 µM [fluorescent, side channel, single point]"
2,O=C1NC(=O)C2C1C(c1ccc([N+](=O)[O-])cc1)=NN2Cc1ccccc1 (centres undefined),"inconclusive: 10 µM [fluorescent, side channel, partial curve]"
3,COc1ccccc1/C=C/C(=O)N1CCOCC1,inactive
4,NNC(=O)CCN1CCN(Cc2ccccc2)CC1,"inconclusive: 63.1 µM [fluorescent, side channel, single point]"
5,Cc1ccc(C(=O)NC(=S)NNC(=O)c2ccccc2O)cc1,inactive
6,c1ccc(-c2nc(NCC3CCCO3)c3ccccc3n2)nc1 (centres undefined),"inconclusive: 25.1 µM [quencher, side channel, partial curve]"
7,COc1cccc(-c2onc3ccc(C(=O)/C=C/N(C)C)cc23)c1,"inconclusive: 70.8 µM [quencher, side channel, single point]"
8,Cc1[nH]c(=O)c(C#N)c2c1COC(C)(C)C2,inactive
9,Cc1cccc(C(=O)Nc2ccc(C(=O)Nc3ccc(O)cc3)cc2)c1,"inconclusive: 12.6 µM [quencher, side channel, single point]"
10,CC(=O)c1cc(-c2ccc(F)cc2)n(CCC(=O)NC(C)(C)C)c1C,inactive
11,COc1ccc(-n2nnnc2SCC(=O)N2CCN(C(=O)c3ccco3)CC2)cc1OC,"inconclusive: 11.2 µM [fluorescent, side channel, full curve]"
12,Oc1ccc(N=Nc2c(O)ccc3ccccc23)cc1,"inconclusive: 79.4 µM [quencher, side channel, partial curve]"
13,O=C(/C=C/c1cc[n+](CC(=O)c2ccc3cccc4c3c2CC4)cc1)c1ccc2cccc3c2c1CC3,"inconclusive: 25.1 µM [quencher, side channel, partial curve]"
14,CCOc1cc(OCC)cc(C(=O)NC(=S)Nc2cccc(C(F)(F)F)c2)c1,inactive
15,CC(=O)c1ccc(N2CCN(S(=O)(=O)c3ccc4c(c3)CC(C)N4C(=O)C3CC3)CC2)cc1 (centres undefined),"inconclusive: 15.8 µM [quencher, side channel, single point]"
16,COc1cc(C2C=C(c3cccs3)Nc3ncnn32)cc(OC)c1OC (centres undefined),"inconclusive: 35.5 µM [inhibitor, single point]"
17,C/C=C(\C)C(=O)NCCN1C2=NC[C@H](C(C)C)N2C[C@@H]1Cc1ccc(OC)cc1,inactive
18,Nc1c(-c2cccc(Cl)c2)cnn1-c1ccccc1,inactive
19,CCOc1ccccc1NC(=O)Cn1c(=O)n(-c2ccccc2)c(=O)c2oc3ccccc3c21,"inconclusive: 89.1 µM [fluorescent, side channel, single point]"

# Part of the list above, set out differently:
row	SMILES	Potency
8	Cc1[nH]c(=O)c(C#N)c2c1COC(C)(C)C2	inactive
9	Cc1cccc(C(=O)Nc2ccc(C(=O)Nc3ccc(O)cc3)cc2)c1	inconclusive: 12.6 µM [quencher, side channel, single point]
